Among the data in PMC10721265 are binding values, retold here.

For the assay, the target named is T1, A1CF (mouse (endogenous in liver)) (UniProt Q5YD48).
T1 sequence: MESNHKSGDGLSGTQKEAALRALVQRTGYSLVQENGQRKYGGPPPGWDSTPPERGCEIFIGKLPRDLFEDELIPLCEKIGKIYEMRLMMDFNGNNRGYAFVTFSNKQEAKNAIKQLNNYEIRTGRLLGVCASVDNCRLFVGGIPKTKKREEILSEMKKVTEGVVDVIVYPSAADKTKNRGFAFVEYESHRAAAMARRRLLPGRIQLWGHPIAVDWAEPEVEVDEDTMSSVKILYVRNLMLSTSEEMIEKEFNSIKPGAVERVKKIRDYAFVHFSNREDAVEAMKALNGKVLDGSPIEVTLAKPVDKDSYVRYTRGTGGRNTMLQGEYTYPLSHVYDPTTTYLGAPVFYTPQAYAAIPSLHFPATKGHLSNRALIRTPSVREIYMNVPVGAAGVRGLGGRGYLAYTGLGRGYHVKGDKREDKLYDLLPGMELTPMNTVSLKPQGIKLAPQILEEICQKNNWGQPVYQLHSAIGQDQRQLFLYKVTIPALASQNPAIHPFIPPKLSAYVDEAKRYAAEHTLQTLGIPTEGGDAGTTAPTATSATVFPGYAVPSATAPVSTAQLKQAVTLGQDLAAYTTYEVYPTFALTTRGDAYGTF
Description: affinity purification with mass spectrometry; endogenous A1CF immunoprecipitated from liver lysates of mice fed a normal diet (RIPA buffer, washes with RIPA + 500 mM NaCl), IgG as control; label-free LC-MS/MS.

No constants are given. Whether binding was seen depends on the method and setting. In cells and extracts the contact can be indirect. Here binding means that the protein was enriched with, or labelled near, the bait; the list need not be complete.

B1: RBM47 (protein, UniProt Q91WT8 1-590)
chain: MTAEDSATAMNSDPTVGSSTKVPEGVAGAPNEAALLALIERTGYTMVQENGQRKYGGPPPGWEGPHPQRGCEVFVGKIPRDVYEDELVPVFETVGRIYELRLMMDFDGKNRGYAFVMYCHKHEAKRAVRELNNYEIRPGRLLGVCCSVDNCRLFIGGIPKMKKRGEILEEIAKVTEGVLNVIVYASAADKMKNRGFAFVEYESHRAAAMARRKLMPGRIQLWGHQIAVDWAEPEIDVDEDVMQTVKILYVRNLMIETTEETIKKSFGQFNPGCVERVKKIRDYAFVHFTSREDAVHAMNNLNGTELEGSCLEVTLAKPVDKEQYSRYQKAAKGGGGSAEAVAQQPSYVYSCDPYTLAYYGYPYNALIGPNRDYFVKTGSIRGRGRGAAGNRTPGPRGSYLGGYSAGRGIYSRYHEGKGKQQEKGYELVPNLEISPVNPVAIKPGTVAIPAIGAQYSMFQAAPAPKIIEDGKIHTMEHMISPIAVQPDPATAAAAAAAAAAAAVIPAVSTPPPFQGRPITPVYTVAPNVQRIPTAGIYGASYVPFAAPATATIATLQKNAAAAVYGGYAGYIPQAFPAALQVPIHDVYQTY
In the case of B1, the binding entry is “binds”.

B2: TRIM21 E3 ubiquitin ligase (protein, UniProt Q62191 1-470)
chain: MSPSTTSKMSLEKMWEEVTCSICLDPMVEPMSIECGHCFCKECIFEVGKNGGSSCPECRQQFLLRNLRPNRHIANMVENLKQIAQNTKKSTQETHCMKHGEKLHLFCEEDGQALCWVCAQSGKHRDHTRVPIEEAAKVYQEKIHVVLEKLRKGKELAEKMEMDLTMQRTDWKRNIDTQKSRIHAEFALQNSLLAQEEQRQLQRLEKDQREYLRLLGKKEAELAEKNQALQELISELERRIRGSELELLQEVRIILERSGSWNLDTLDIDAPDLTSTCPVPGRKKMLRTCWVHITLDRNTANSWLIISKDRRQVRMGDTHQNVSDNKERFSNYPMVLGAQRFSSGKMYWEVDVTQKEAWDLGVCRDSVQRKGQFSLSPENGFWTIWLWQDSYEAGTSPQTTLHIQVPPCQIGIFVDYEAGVVSFYNITDHGSLIYTFSECVFAGPLRPFFNVGFNYSGGNAAPLKLCPLKM
Take B2: the binding entry is given as “binds”.
